Experiment [1] addresses T1, GASZ, endogenous in mouse testis (mouse (endogenous in testis)) (UniProt Q8VD46).
T1 sequence: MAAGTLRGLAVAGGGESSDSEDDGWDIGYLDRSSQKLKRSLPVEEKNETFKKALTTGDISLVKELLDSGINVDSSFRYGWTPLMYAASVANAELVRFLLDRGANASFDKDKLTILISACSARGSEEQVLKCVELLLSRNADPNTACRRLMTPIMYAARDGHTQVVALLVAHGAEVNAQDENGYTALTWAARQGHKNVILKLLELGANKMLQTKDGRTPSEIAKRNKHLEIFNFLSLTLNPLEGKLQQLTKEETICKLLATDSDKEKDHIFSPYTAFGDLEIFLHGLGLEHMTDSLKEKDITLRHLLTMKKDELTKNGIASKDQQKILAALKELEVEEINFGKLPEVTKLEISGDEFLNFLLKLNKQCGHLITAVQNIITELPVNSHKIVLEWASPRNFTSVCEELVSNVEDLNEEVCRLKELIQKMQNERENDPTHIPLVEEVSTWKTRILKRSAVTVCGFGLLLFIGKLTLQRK
The experiment can be described thus: co-IP; 1 mg testicular lysate of 21-day-old WT mice, 0.5% NP-40 lysis buffer, pre-cleared, overnight at 4°C with anti-GASZ, anti-MIWI or no primary antibody, protein G beads in 5% BSA; western blot. In general terms: In western blotting, separated proteins are transferred to a membrane and probed.

The target of experiment [2] is MIWI, endogenous in mouse testis (mouse (endogenous in testis)). The description is as above.

These are yes or no findings as the source states them, for the method shown. In cells and extracts the contact can be indirect. A result given as binding can be weak or reduced; the word gives no strength.

MIWI, endogenous in mouse testis: in experiment [1], the binding result was “binds”.
Turning to MILI, endogenous in mouse testis, the binding result in experiment [1] is “no binding”.

B1: GASZ, endogenous in mouse testis (protein, UniProt Q8VD46 1-475)
chain: T1 sequence
Turning to B1, the binding result in experiment [2] is recorded as “binds”.

Source of the values: PMC2727916.
